Results on six molecules are retold here after paper doi:10.1101/180380.

The chains are these.
B1: BAM1-GFP from Arabidopsis (BARELY ANY MERISTEM 1) (receptor, UniProt O49545 20-1003)
chain: SRPISEFRALLSLKTSLTGAGDDKNSPLSSWKVSTSFCTWIGVTCDVSRRHVTSLDLSGLNLSGTLSPDVSHLRLLQNLSLAENLISGPIPPEISSLSGLRHLNLSNNVFNGSFPDEISSGLVNLRVLDVYNNNLTGDLPVSVTNLTQLRHLHLGGNYFAGKIPPSYGSWPVIEYLAVSGNELVGKIPPEIGNLTTLRELYIGYYNAFEDGLPPEIGNLSELVRFDGANCGLTGEIPPEIGKLQKLDTLFLQVNVFSGPLTWELGTLSSLKSMDLSNNMFTGEIPASFAELKNLTLLNLFRNKLHGEIPEFIGDLPELEVLQLWENNFTGSIPQKLGENGKLNLVDLSSNKLTGTLPPNMCSGNKLETLITLGNFLFGSIPDSLGKCESLTRIRMGENFLNGSIPKGLFGLPKLTQVELQDNYLSGELPVAGGVSVNLGQISLSNNQLSGPLPPAIGNFTGVQKLLLDGNKFQGPIPSEVGKLQQLSKIDFSHNLFSGRIAPEISRCKLLTFVDLSRNELSGEIPNEITAMKILNYLNLSRNHLVGSIPGSISSMQSLTSLDFSYNNLSGLVPGTGQFSYFNYTSFLGNPDLCGPYLGPCKDGVAKGGHQSHSKGPLSASMKLLLVLGLLVCSIAFAVVAIIKARSLKKASESRAWRLTAFQRLDFTCDDVLDSLKEDNIIGKGGAGIVYKGVMPNGDLVAVKRLAAMSRGSSHDHGFNAEIQTLGRIRHRHIVRLLGFCSNHETNLLVYEYMPNGSLGEVLHGKKGGHLHWDTRYKIALEAAKGLCYLHHDCSPLIVHRDVKSNNILLDSNFEAHVADFGLAKFLQDSGTSECMSAIAGSYGYIAPEYAYTLKVDEKSDVYSFGVVLLELVTGRKPVGEFGDGVDIVQWVRKMTDSNKDSVLKVLDPRLSSIPIHEVTHVFYVAMLCVEEQAVERPTMREVVQILTEIPKLPPSKDQPMTESAPESELSPKSGVQSPPDLLNL
B2: BAM3-GFP (receptor, UniProt O65440 22-992)
chain: SLISPLNLSLIRQANVLISLKQSFDSYDPSLDSWNIPNFNSLCSWTGVSCDNLNQSITRLDLSNLNISGTISPEISRLSPSLVFLDISSNSFSGELPKEIYELSGLEVLNISSNVFEGELETRGFSQMTQLVTLDAYDNSFNGSLPLSLTTLTRLEHLDLGGNYFDGEIPRSYGSFLSLKFLSLSGNDLRGRIPNELANITTLVQLYLGYYNDYRGGIPADFGRLINLVHLDLANCSLKGSIPAELGNLKNLEVLFLQTNELTGSVPRELGNMTSLKTLDLSNNFLEGEIPLELSGLQKLQLFNLFFNRLHGEIPEFVSELPDLQILKLWHNNFTGKIPSKLGSNGNLIEIDLSTNKLTGLIPESLCFGRRLKILILFNNFLFGPLPEDLGQCEPLWRFRLGQNFLTSKLPKGLIYLPNLSLLELQNNFLTGEIPEEEAGNAQFSSLTQINLSNNRLSGPIPGSIRNLRSLQILLLGANRLSGQIPGEIGSLKSLLKIDMSRNNFSGKFPPEFGDCMSLTYLDLSHNQISGQIPVQISQIRILNYLNVSWNSFNQSLPNELGYMKSLTSADFSHNNFSGSVPTSGQFSYFNNTSFLGNPFLCGFSSNPCNGSQNQSQSQLLNQNNARSRGEISAKFKLFFGLGLLGFFLVFVVLAVVKNRRMRKNNPNLWKLIGFQKLGFRSEHILECVKENHVIGKGGRGIVYKGVMPNGEEVAVKKLLTITKGSSHDNGLAAEIQTLGRIRHRNIVRLLAFCSNKDVNLLVYEYMPNGSLGEVLHGKAGVFLKWETRLQIALEAAKGLCYLHHDCSPLIIHRDVKSNNILLGPEFEAHVADFGLAKFMMQDNGASECMSSIAGSYGYIAPEYAYTLRIDEKSDVYSFGVVLLELITGRKPVDNFGEEGIDIVQWSKIQTNCNRQGVVKIIDQRLSNIPLAEAMELFFVAMLCVQEHSVERPTMREVVQMISQAKQPNTF
B3: BAM2-GFP (receptor, UniProt Q9M2Z1 23-1002)
chain: KPITELHALLSLKSSFTIDEHSPLLTSWNLSTTFCSWTGVTCDVSLRHVTSLDLSGLNLSGTLSSDVAHLPLLQNLSLAANQISGPIPPQISNLYELRHLNLSNNVFNGSFPDELSSGLVNLRVLDLYNNNLTGDLPVSLTNLTQLRHLHLGGNYFSGKIPATYGTWPVLEYLAVSGNELTGKIPPEIGNLTTLRELYIGYYNAFENGLPPEIGNLSELVRFDAANCGLTGEIPPEIGKLQKLDTLFLQVNAFTGTITQELGLISSLKSMDLSNNMFTGEIPTSFSQLKNLTLLNLFRNKLYGAIPEFIGEMPELEVLQLWENNFTGSIPQKLGENGRLVILDLSSNKLTGTLPPNMCSGNRLMTLITLGNFLFGSIPDSLGKCESLTRIRMGENFLNGSIPKELFGLPKLSQVELQDNYLTGELPISGGGVSGDLGQISLSNNQLSGSLPAAIGNLSGVQKLLLDGNKFSGSIPPEIGRLQQLSKLDFSHNLFSGRIAPEISRCKLLTFVDLSRNELSGDIPNELTGMKILNYLNLSRNHLVGSIPVTIASMQSLTSVDFSYNNLSGLVPSTGQFSYFNYTSFVGNSHLCGPYLGPCGKGTHQSHVKPLSATTKLLLVLGLLFCSMVFAIVAIIKARSLRNASEAKAWRLTAFQRLDFTCDDVLDSLKEDNIIGKGGAGIVYKGTMPKGDLVAVKRLATMSHGSSHDHGFNAEIQTLGRIRHRHIVRLLGFCSNHETNLLVYEYMPNGSLGEVLHGKKGGHLHWNTRYKIALEAAKGLCYLHHDCSPLIVHRDVKSNNILLDSNFEAHVADFGLAKFLQDSGTSECMSAIAGSYGYIAPEYAYTLKVDEKSDVYSFGVVLLELITGKKPVGEFGDGVDIVQWVRSMTDSNKDCVLKVIDLRLSSVPVHEVTHVFYVALLCVEEQAVERPTMREVVQILTEIPKIPLSKQQAAESDVTEKAPAINESSPDSGSPPDLLSN
B4: BAM1 from Arabidopsis fused to a fluorescent protein for FRET-FLIM (receptor, UniProt O49545 20-1003)
chain: SRPISEFRALLSLKTSLTGAGDDKNSPLSSWKVSTSFCTWIGVTCDVSRRHVTSLDLSGLNLSGTLSPDVSHLRLLQNLSLAENLISGPIPPEISSLSGLRHLNLSNNVFNGSFPDEISSGLVNLRVLDVYNNNLTGDLPVSVTNLTQLRHLHLGGNYFAGKIPPSYGSWPVIEYLAVSGNELVGKIPPEIGNLTTLRELYIGYYNAFEDGLPPEIGNLSELVRFDGANCGLTGEIPPEIGKLQKLDTLFLQVNVFSGPLTWELGTLSSLKSMDLSNNMFTGEIPASFAELKNLTLLNLFRNKLHGEIPEFIGDLPELEVLQLWENNFTGSIPQKLGENGKLNLVDLSSNKLTGTLPPNMCSGNKLETLITLGNFLFGSIPDSLGKCESLTRIRMGENFLNGSIPKGLFGLPKLTQVELQDNYLSGELPVAGGVSVNLGQISLSNNQLSGPLPPAIGNFTGVQKLLLDGNKFQGPIPSEVGKLQQLSKIDFSHNLFSGRIAPEISRCKLLTFVDLSRNELSGEIPNEITAMKILNYLNLSRNHLVGSIPGSISSMQSLTSLDFSYNNLSGLVPGTGQFSYFNYTSFLGNPDLCGPYLGPCKDGVAKGGHQSHSKGPLSASMKLLLVLGLLVCSIAFAVVAIIKARSLKKASESRAWRLTAFQRLDFTCDDVLDSLKEDNIIGKGGAGIVYKGVMPNGDLVAVKRLAAMSRGSSHDHGFNAEIQTLGRIRHRHIVRLLGFCSNHETNLLVYEYMPNGSLGEVLHGKKGGHLHWDTRYKIALEAAKGLCYLHHDCSPLIVHRDVKSNNILLDSNFEAHVADFGLAKFLQDSGTSECMSAIAGSYGYIAPEYAYTLKVDEKSDVYSFGVVLLELVTGRKPVGEFGDGVDIVQWVRKMTDSNKDSVLKVLDPRLSSIPIHEVTHVFYVAMLCVEEQAVERPTMREVVQILTEIPKLPPSKDQPMTESAPESELSPKSGVQSPPDLLNL
B5: BAM3 fused to a fluorescent protein for FRET-FLIM (receptor, UniProt O65440 22-992)
chain: SLISPLNLSLIRQANVLISLKQSFDSYDPSLDSWNIPNFNSLCSWTGVSCDNLNQSITRLDLSNLNISGTISPEISRLSPSLVFLDISSNSFSGELPKEIYELSGLEVLNISSNVFEGELETRGFSQMTQLVTLDAYDNSFNGSLPLSLTTLTRLEHLDLGGNYFDGEIPRSYGSFLSLKFLSLSGNDLRGRIPNELANITTLVQLYLGYYNDYRGGIPADFGRLINLVHLDLANCSLKGSIPAELGNLKNLEVLFLQTNELTGSVPRELGNMTSLKTLDLSNNFLEGEIPLELSGLQKLQLFNLFFNRLHGEIPEFVSELPDLQILKLWHNNFTGKIPSKLGSNGNLIEIDLSTNKLTGLIPESLCFGRRLKILILFNNFLFGPLPEDLGQCEPLWRFRLGQNFLTSKLPKGLIYLPNLSLLELQNNFLTGEIPEEEAGNAQFSSLTQINLSNNRLSGPIPGSIRNLRSLQILLLGANRLSGQIPGEIGSLKSLLKIDMSRNNFSGKFPPEFGDCMSLTYLDLSHNQISGQIPVQISQIRILNYLNVSWNSFNQSLPNELGYMKSLTSADFSHNNFSGSVPTSGQFSYFNNTSFLGNPFLCGFSSNPCNGSQNQSQSQLLNQNNARSRGEISAKFKLFFGLGLLGFFLVFVVLAVVKNRRMRKNNPNLWKLIGFQKLGFRSEHILECVKENHVIGKGGRGIVYKGVMPNGEEVAVKKLLTITKGSSHDNGLAAEIQTLGRIRHRNIVRLLAFCSNKDVNLLVYEYMPNGSLGEVLHGKAGVFLKWETRLQIALEAAKGLCYLHHDCSPLIIHRDVKSNNILLGPEFEAHVADFGLAKFMMQDNGASECMSSIAGSYGYIAPEYAYTLRIDEKSDVYSFGVVLLELITGRKPVDNFGEEGIDIVQWSKIQTNCNRQGVVKIIDQRLSNIPLAEAMELFFVAMLCVQEHSVERPTMREVVQMISQAKQPNTF
B6: BAM2 fused to a fluorescent protein for FRET-FLIM (receptor, UniProt Q9M2Z1 23-1002)
chain: KPITELHALLSLKSSFTIDEHSPLLTSWNLSTTFCSWTGVTCDVSLRHVTSLDLSGLNLSGTLSSDVAHLPLLQNLSLAANQISGPIPPQISNLYELRHLNLSNNVFNGSFPDELSSGLVNLRVLDLYNNNLTGDLPVSLTNLTQLRHLHLGGNYFSGKIPATYGTWPVLEYLAVSGNELTGKIPPEIGNLTTLRELYIGYYNAFENGLPPEIGNLSELVRFDAANCGLTGEIPPEIGKLQKLDTLFLQVNAFTGTITQELGLISSLKSMDLSNNMFTGEIPTSFSQLKNLTLLNLFRNKLYGAIPEFIGEMPELEVLQLWENNFTGSIPQKLGENGRLVILDLSSNKLTGTLPPNMCSGNRLMTLITLGNFLFGSIPDSLGKCESLTRIRMGENFLNGSIPKELFGLPKLSQVELQDNYLTGELPISGGGVSGDLGQISLSNNQLSGSLPAAIGNLSGVQKLLLDGNKFSGSIPPEIGRLQQLSKLDFSHNLFSGRIAPEISRCKLLTFVDLSRNELSGDIPNELTGMKILNYLNLSRNHLVGSIPVTIASMQSLTSVDFSYNNLSGLVPSTGQFSYFNYTSFVGNSHLCGPYLGPCGKGTHQSHVKPLSATTKLLLVLGLLFCSMVFAIVAIIKARSLRNASEAKAWRLTAFQRLDFTCDDVLDSLKEDNIIGKGGAGIVYKGTMPKGDLVAVKRLATMSHGSSHDHGFNAEIQTLGRIRHRHIVRLLGFCSNHETNLLVYEYMPNGSLGEVLHGKKGGHLHWNTRYKIALEAAKGLCYLHHDCSPLIVHRDVKSNNILLDSNFEAHVADFGLAKFLQDSGTSECMSAIAGSYGYIAPEYAYTLKVDEKSDVYSFGVVLLELITGKKPVGEFGDGVDIVQWVRSMTDSNKDCVLKVIDLRLSSVPVHEVTHVFYVALLCVEEQAVERPTMREVVQILTEIPKIPLSKQQAAESDVTEKAPAINESSPDSGSPPDLLSN

No constants are given. Whether binding was seen depends on the method and setting. In cells and extracts the contact can be indirect. Binding can be weak; no strength is given. Where a sequence is shown, tags or fusion partners need not be part of it.

The target of one experiment is C4-3xHA (C4 protein from Tomato yellow leaf curl virus) (Tomato yellow leaf curl virus). Nature of the experiment: co-IP.
B1: the binding result is recorded as “binds”.

As for B2, the binding result is “binds weakly”.

Consider B3, for which the binding entry is “binds”.

For the next experiment, the target named is C4 fused to a fluorescent protein for FRET-FLIM (Tomato yellow leaf curl virus). Nature of the experiment: FRET or BRET. (In general: Bioluminescence resonance energy transfer reports proximity on the nanometre scale.)
In the case of B4, the binding result was “binds”.

As to B5, the binding result was “binds weakly”.

With B6, the binding result is “binds”.
